According to PubChem BioAssay AID180 (DTP/NCI, 2004):
The list is a part of this screen's results and no random one: it gathers tests that were run many times, whatever their T/C, doses with no T/C, and many T/C values between a quarter and a half above the control. Other doses and runs of a compound stand elsewhere. T/C is the treated group as % of the vehicle group. Schedules are NCI's codes, taken here to give the interval after Q, in days (D) or hours (H), and the number of doses after X. Some entries give survivors of the animals treated and no T/C: the source holds a T/C of zero for them, seemingly a mark for toxic or unscored doses. Counts of survivors are from the toxicity check (mostly the fifth day) where no day follows; animals may have died later.

Tested on: BDF1 mice, Adenocarcinoma 755 s.c., tumor weight T/C
Test: NCI In Vivo Anticancer Drug Screen. Data for tumor model Adenocarcinoma 755 (subcutaneous) in B6D2F1 (BDF1) mice
Settings: T/C endpoint: mean tumor weight, higher T/C = larger tumour
Procedure, shortened: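 Compound activity was tested in mice carrying transplanted tumors. Survival or tumor size was measured, and each value is the treated-group measurement divided by that of the vehicle-treated control group (T/C).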

[1] = dose: 400.0 mg/kg/injection, schedule: Q01DX011 (ip), vehicle: carboxymethylcellulose (CMC)
[2] = dose: 50.0 mg/kg/injection, schedule: Q01DX011 (ip), vehicle: carboxymethylcellulose (CMC)

SMILES: CC(C)n1cnc2c(=S)nc[nH]c21
- survivor count (dose: 100.0 mg/kg/injection, schedule: Q01DX011 (ip), vehicle: carboxymethylcellulose (CMC)): 6 of 10
- survivor count (dose: 200.0 mg/kg/injection, schedule: Q01DX011 (ip), vehicle: carboxymethylcellulose (CMC)): 0 of 10
- survivor count [1]: 0 of 10

SMILES: Cn1c(=O)c2[nH]c(N/N=C/c3ccc(Br)cc3)nc2n(C)c1=O
- survivor count (dose: 960.0 mg/kg/injection, schedule: Q01DX011 (ip), vehicle: carboxymethylcellulose (CMC)): 2 of 10

SMILES: [I][Hg][CH2]C1OCCOC1[CH2][Hg][I] (stereo not given)
- survivor count (dose: 40.0 mg/kg/injection, schedule: Q01DX011 (ip), vehicle: carboxymethylcellulose (CMC)): 5 of 10
- survivor count (dose: 64.0 mg/kg/injection, schedule: Q01DX011 (ip), vehicle: carboxymethylcellulose (CMC)): 3 of 10
- survivor count (dose: 80.0 mg/kg/injection, schedule: Q01DX011 (ip), vehicle: carboxymethylcellulose (CMC)): 1 of 10
- survivor count (dose: 128.0 mg/kg/injection, schedule: Q01DX011 (ip), vehicle: carboxymethylcellulose (CMC)): 0 of 10

SMILES: CC(C)CN(C)/N=N/c1nc[nH]c1C(N)=O
- survivor count [2]: 6 of 10

SMILES: O=C(O)/C=C\C(=O)Nc1nccs1
- survivor count [2]: 6 of 10
- survivor count [1]: 4 of 10

SMILES: C=CC(CN1CC1)OC(C)=O (stereo not given)
- survivor count (dose: 4.0 mg/kg/injection, schedule: Q01DX010 (oral), vehicle: saline): 1 of 10
- survivor count (dose: 4.0 mg/kg/injection, schedule: Q01DX011 (ip), vehicle: methylcellulose (MC)): 3 of 10
- survivor count (dose: 4.5 mg/kg/injection, schedule: Q01DX011 (ip), vehicle: carboxymethylcellulose (CMC)): 6 of 10
- survivor count (dose: 6.75 mg/kg/injection, schedule: Q01DX011 (ip), vehicle: carboxymethylcellulose (CMC)): 4 of 10
- survivor count (dose: 8.0 mg/kg/injection, schedule: Q01DX010 (oral), vehicle: saline): 5 of 10
- survivor count (dose: 9.9 mg/kg/injection, schedule: Q01DX011 (ip), vehicle: carboxymethylcellulose (CMC)): 2 of 10
- survivor count (dose: 10.0 mg/kg/injection, schedule: Q01DX011 (ip), vehicle: carboxymethylcellulose (CMC)): 6 of 10
- survivor count (dose: 12.8 mg/kg/injection, schedule: Q01DX011 (ip), vehicle: carboxymethylcellulose (CMC)): 4 of 10
- survivor count (dose: 14.0 mg/kg/injection, schedule: Q01DX011 (ip), vehicle: carboxymethylcellulose (CMC)): 1 of 10
- survivor count (dose: 16.0 mg/kg/injection, schedule: Q01DX006 (iv), vehicle: saline): 4 of 10
- survivor count (dose: 16.0 mg/kg/injection, schedule: Q01DX010 (oral), vehicle: saline): 0 of 10
- survivor count (dose: 16.0 mg/kg/injection, schedule: Q01DX011 (sc), vehicle: saline): 0 of 10
- survivor count (dose: 16.0 mg/kg/injection, schedule: Q02DX004 (im), vehicle: saline): 1 of 10
- survivor count (dose: 32.0 mg/kg/injection, schedule: Q01DX010 (oral), vehicle: saline): 0 of 10
- survivor count (dose: 32.0 mg/kg/injection, schedule: Q01DX011 (sc), vehicle: saline): 0 of 10

SMILES: CC(CNC(=O)CCOS(C)(=O)=O)NC(=O)CCOS(C)(=O)=O (stereo not given)
- T/C (dose: 14.0 mg/kg/injection, schedule: Q01DX011 (ip), vehicle: carboxymethylcellulose (CMC), evaluated on day 12): 130 % of control

SMILES: CCCCN(C)N=Nc1ccc(CCC(=O)NN)cc1
- survivor count (dose: 62.0 mg/kg/injection, schedule: Q01DX011 (ip), vehicle: carboxymethylcellulose (CMC)): 4 of 10

SMILES: CC(C)OC(=O)C1(N)CCCC1
- survivor count (dose: 112.0 mg/kg/injection, schedule: Q01DX011 (ip), vehicle: carboxymethylcellulose (CMC)): 6 of 10
- survivor count (dose: 120.0 mg/kg/injection, schedule: Q01DX011 (ip), vehicle: other): 4 of 10
